No constants are given. Whether binding was seen depends on the method and setting. Binding seen in cells or lysates may run through a third protein. Some results given as binding are weak or reduced against the parent protein; the word gives no strength. For some assays here: Sequences can lack the tags named with a protein.
B1: Mouse recombinant EphrinB1-Fc chimera (Fc fusion, UniProt P52795 25-236)
chain: ATPLAKNLEPVSWSSLNPKFLSGKGLVIYPKIGDKLDIICPRAEAGRPYEYYKLYLVRPEQAAACSTVLDPNVLVTCNKPHQEIRFTIKFQEFSPNYMGLEFKKYHDYYITSTSNGSLEGLENREGGVCRTRTMKIVMKVGQDPNAVTPEQLTTSRPSKESDNTVKTATQAPGRGSQGDSDGKHETVNQEEKSGPGAGGGGSGDSDSFFNSK

By UniProt entry, the sequences of proteins in these tests, tags left out. Residues count along the entry.
UniProt Q03135: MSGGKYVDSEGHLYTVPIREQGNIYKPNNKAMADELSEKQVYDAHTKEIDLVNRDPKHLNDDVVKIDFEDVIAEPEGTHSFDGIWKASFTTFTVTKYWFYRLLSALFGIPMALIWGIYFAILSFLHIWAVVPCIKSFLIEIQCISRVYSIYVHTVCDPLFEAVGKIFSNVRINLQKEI
UniProt Q8CBF3, residues 18-984: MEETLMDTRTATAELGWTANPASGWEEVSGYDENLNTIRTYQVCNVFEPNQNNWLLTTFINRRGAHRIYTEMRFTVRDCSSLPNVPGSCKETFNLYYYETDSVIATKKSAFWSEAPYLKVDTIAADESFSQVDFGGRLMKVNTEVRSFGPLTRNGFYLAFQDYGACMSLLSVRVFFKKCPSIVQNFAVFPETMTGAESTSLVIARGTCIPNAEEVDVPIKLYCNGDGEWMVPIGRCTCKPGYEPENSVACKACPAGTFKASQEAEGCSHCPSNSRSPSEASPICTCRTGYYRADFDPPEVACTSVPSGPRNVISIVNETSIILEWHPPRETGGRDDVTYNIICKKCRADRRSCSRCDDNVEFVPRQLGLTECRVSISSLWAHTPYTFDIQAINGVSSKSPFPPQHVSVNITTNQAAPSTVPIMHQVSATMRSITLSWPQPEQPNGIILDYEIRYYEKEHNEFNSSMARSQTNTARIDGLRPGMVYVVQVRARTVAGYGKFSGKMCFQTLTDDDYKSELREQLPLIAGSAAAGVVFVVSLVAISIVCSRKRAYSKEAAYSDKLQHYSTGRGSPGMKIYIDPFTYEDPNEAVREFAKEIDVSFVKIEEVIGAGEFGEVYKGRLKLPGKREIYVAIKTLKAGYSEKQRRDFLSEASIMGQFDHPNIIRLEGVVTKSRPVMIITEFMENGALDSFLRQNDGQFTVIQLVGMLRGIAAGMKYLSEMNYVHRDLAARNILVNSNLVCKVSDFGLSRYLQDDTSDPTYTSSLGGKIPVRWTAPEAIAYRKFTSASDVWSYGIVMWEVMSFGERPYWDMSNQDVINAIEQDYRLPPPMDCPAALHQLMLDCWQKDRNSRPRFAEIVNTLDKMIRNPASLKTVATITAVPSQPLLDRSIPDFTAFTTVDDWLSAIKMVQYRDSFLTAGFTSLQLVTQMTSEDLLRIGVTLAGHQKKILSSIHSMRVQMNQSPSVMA

How the values were obtained:
[1] = biological target: WT-Cav-1-CFP (caveolin-1, C-terminal CFP-tagged) (UniProt Q03135); test: FRET or BRET
[2] = biological target: WT-EphB1-YFP (mouse EphB1, C-terminal YFP-tagged) (mouse) (UniProt Q8CBF3); test: FRET or BRET

Molecule | binding [1] | binding [2]
WT-EphB1-YFP (mouse EphB1, C-terminal YFP-tagged) (from UniProt Q8CBF3 18-984) (receptor) | binds | 
B1 |  | binds
